Results: article PMC4014424
No constants are given. Whether binding was seen depends on the method and setting. Binding seen in cells or lysates may run through a third protein. Binding can be weak; no strength is given. Sequences can lack the tags named with a protein.

Target: T1, biotin-tagged TR4 (orphan nuclear receptor TR4, NR2C2) (UniProt P49117)
T1 sequence (chain, biotin on the biotin recognition sequence (by birA biotin ligase)): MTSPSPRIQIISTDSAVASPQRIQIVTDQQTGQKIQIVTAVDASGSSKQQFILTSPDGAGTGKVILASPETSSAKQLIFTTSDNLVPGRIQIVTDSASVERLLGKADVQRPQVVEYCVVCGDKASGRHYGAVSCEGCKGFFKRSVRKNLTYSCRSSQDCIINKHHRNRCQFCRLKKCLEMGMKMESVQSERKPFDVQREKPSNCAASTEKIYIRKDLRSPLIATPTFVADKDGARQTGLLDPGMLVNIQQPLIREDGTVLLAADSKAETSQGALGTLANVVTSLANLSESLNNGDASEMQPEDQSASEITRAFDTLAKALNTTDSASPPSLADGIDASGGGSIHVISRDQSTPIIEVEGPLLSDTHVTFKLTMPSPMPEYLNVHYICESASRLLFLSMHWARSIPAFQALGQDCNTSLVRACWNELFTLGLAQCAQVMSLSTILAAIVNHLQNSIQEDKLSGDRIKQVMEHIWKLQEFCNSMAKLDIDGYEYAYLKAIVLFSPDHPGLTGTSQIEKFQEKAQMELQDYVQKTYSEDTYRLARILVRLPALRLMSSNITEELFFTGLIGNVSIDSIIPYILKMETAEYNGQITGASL
Assay: pull-down; streptavidin beads incubated overnight at 4°C with nuclear extracts of MEL cells expressing birA with or without (control) biotin-tagged TR4; washed with PBS plus 0.5% Tween20 and 1X Laemmli sample buffer; bound proteins immunoblotted

Substance: RXR (mouse (endogenous in MEL))
- binding: binds weakly
